{"source": "PubChem BioAssay AID1053208 – Peter MacCallum Cancer Centre – 2014", "screen": "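Find knock-downs that sensitise mouse osteosarcoma cells to doxorubicin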 (primary screen)", "cell system": "mouse osteosarcoma cells, early-passage culture from an engineered mouse model of fibroblastic bone tumour", "reagent": "siRNA pool against mouse genes, 40 nM", "duration": "about 120 h (48 h before drug, then 72 h with drug)", "treatment": "doxorubicin 100 nM for 72 h, roughly 30-40% inhibitory dose", "detection": "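Viability read as ATP luminescence after 72 h of 100 nM doxorubicin or none, duplicate wells averaged, scaled to non-targeting siRNA, then expressed as robust z-scores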", "direction": "viability z-score with doxorubicin: higher = more viable cells under doxorubicin; viability z-score without drug: higher = more viable cells with knock-down alone", "call rule": "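Called active if knock-down leaves viability unchanged without drug (z within -2 to 2) but lowers it with doxorubicin (z at or under -2)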", "note": "This is an unselected part of about 17,000 reagents tested. 788 of all reagents (4.7%) were called active. 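Calls rest on z-score classes alone; an extra cut-off of viability at most 70% of control was not applied to them.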 Reagents against one gene are numbered here. Not all columns of the deposit are shown."}
{"gene": "Chn1", "reagent no.": 1, "combined z-score class": "no change with or without drug", "viability z-score with doxorubicin": 0, "viability z-score without drug": 0.84, "Outcome": "inactive"}
{"gene": "Mid1ip1", "reagent no.": 1, "combined z-score class": "no change with or without drug", "viability z-score with doxorubicin": -0.22, "viability z-score without drug": -0.51, "Outcome": "inactive"}
{"gene": "Satb2", "reagent no.": 1, "combined z-score class": "no change with or without drug", "viability z-score with doxorubicin": -1.12, "viability z-score without drug": -0.84, "Outcome": "inactive"}
{"gene": "Chlsn", "reagent no.": 1, "combined z-score class": "low cell count with doxorubicin only", "viability z-score with doxorubicin": -2.25, "viability z-score without drug": -0.51, "Outcome": "active"}
{"gene": "Or10ak7", "reagent no.": 1, "combined z-score class": "no change with or without drug", "viability z-score with doxorubicin": -0.56, "viability z-score without drug": -0.34, "Outcome": "inactive"}
{"gene": "Or10ak7", "reagent no.": 2, "combined z-score class": "no change with or without drug", "viability z-score with doxorubicin": -0.9, "viability z-score without drug": -1.18, "Outcome": "inactive"}
{"gene": "Crhbp", "reagent no.": 1, "combined z-score class": "no change with or without drug", "viability z-score with doxorubicin": -0.67, "viability z-score without drug": 0.17, "Outcome": "inactive"}
{"gene": "Taco1", "reagent no.": 1, "combined z-score class": "low cell count with and without drug", "viability z-score with doxorubicin": -5.73, "viability z-score without drug": -3.2, "Outcome": "inactive"}
{"gene": "Or5al6", "reagent no.": 1, "combined z-score class": "no change with or without drug", "viability z-score with doxorubicin": -0.45, "viability z-score without drug": 0.51, "Outcome": "inactive"}
{"gene": "Skil", "reagent no.": 1, "combined z-score class": "no change with or without drug", "viability z-score with doxorubicin": 0.56, "viability z-score without drug": -0.17, "Outcome": "inactive"}
{"gene": "Tap2", "reagent no.": 1, "combined z-score class": "no change with or without drug", "viability z-score with doxorubicin": -0.22, "viability z-score without drug": 0.17, "Outcome": "inactive"}
{"gene": "Dmac2l", "reagent no.": 1, "combined z-score class": "no change with or without drug", "viability z-score with doxorubicin": 0.34, "viability z-score without drug": 0.84, "Outcome": "inactive"}
{"gene": "Sparc", "reagent no.": 1, "combined z-score class": "no change with or without drug", "viability z-score with doxorubicin": 0.45, "viability z-score without drug": -1.52, "Outcome": "inactive"}
{"gene": "Pla2r1", "reagent no.": 1, "combined z-score class": "no change with or without drug", "viability z-score with doxorubicin": 0.45, "viability z-score without drug": 0.67, "Outcome": "inactive"}
{"gene": "Exoc4", "reagent no.": 1, "combined z-score class": "no change with or without drug", "viability z-score with doxorubicin": -1.35, "viability z-score without drug": 0.17, "Outcome": "inactive"}
{"gene": "Ripk4", "reagent no.": 1, "combined z-score class": "no change with or without drug", "viability z-score with doxorubicin": 0.22, "viability z-score without drug": -0.17, "Outcome": "inactive"}
{"gene": "Gas7", "reagent no.": 1, "combined z-score class": "no change with or without drug", "viability z-score with doxorubicin": -0.67, "viability z-score without drug": -0.67, "Outcome": "inactive"}
{"gene": "Nek3", "reagent no.": 1, "combined z-score class": "no change with or without drug", "viability z-score with doxorubicin": 0.45, "viability z-score without drug": 0.67, "Outcome": "inactive"}
{"gene": "Pals1", "reagent no.": 1, "combined z-score class": "low cell count with doxorubicin only", "viability z-score with doxorubicin": -2.02, "viability z-score without drug": -1.85, "Outcome": "active"}
{"gene": "Or2a20", "reagent no.": 1, "combined z-score class": "no change with or without drug", "viability z-score with doxorubicin": -1.57, "viability z-score without drug": -1.52, "Outcome": "inactive"}
{"gene": "Rmnd1", "reagent no.": 1, "combined z-score class": "no change with or without drug", "viability z-score with doxorubicin": 0.34, "viability z-score without drug": -0.17, "Outcome": "inactive"}
{"gene": "Lpo", "reagent no.": 1, "combined z-score class": "no change with or without drug", "viability z-score with doxorubicin": 0, "viability z-score without drug": -0.51, "Outcome": "inactive"}
{"gene": "1810018F18Rik", "reagent no.": 1, "combined z-score class": "no change with or without drug", "viability z-score with doxorubicin": 1.57, "viability z-score without drug": 1.85, "Outcome": "inactive"}
{"gene": "Gata6", "reagent no.": 1, "combined z-score class": "no change with or without drug", "viability z-score with doxorubicin": -0.79, "viability z-score without drug": 0.51, "Outcome": "inactive"}
{"gene": "Ap2s1", "reagent no.": 1, "combined z-score class": "no change with or without drug", "viability z-score with doxorubicin": 0.9, "viability z-score without drug": 0.17, "Outcome": "inactive"}
{"gene": "Tgm4", "reagent no.": 1, "combined z-score class": "high cell count without drug only", "viability z-score with doxorubicin": 0.9, "viability z-score without drug": 2.02, "Outcome": "inactive"}
{"gene": "Bbc3", "reagent no.": 1, "combined z-score class": "no change with or without drug", "viability z-score with doxorubicin": 1.12, "viability z-score without drug": -0.84, "Outcome": "inactive"}
{"gene": "Cadm1", "reagent no.": 1, "combined z-score class": "no change with or without drug", "viability z-score with doxorubicin": -0.67, "viability z-score without drug": 0.51, "Outcome": "inactive"}

A run of entries taken from the entries so far, for reference:
{"gene": "Or2a20", "reagent no.": 1, "combined z-score class": "no change with or without drug", "viability z-score with doxorubicin": -1.57, "viability z-score without drug": -1.52, "Outcome": "inactive"}
{"gene": "Rmnd1", "reagent no.": 1, "combined z-score class": "no change with or without drug", "viability z-score with doxorubicin": 0.34, "viability z-score without drug": -0.17, "Outcome": "inactive"}
{"gene": "Lpo", "reagent no.": 1, "combined z-score class": "no change with or without drug", "viability z-score with doxorubicin": 0, "viability z-score without drug": -0.51, "Outcome": "inactive"}
